From patent publication US20150198603A1 (TORAY INDUSTRIES, published 2015)
Results are given in words; binding and its absence hold for the method and conditions named. For some of these results: In cells and extracts the contact can be indirect. Some entries that bind do so weakly or less than the wild type.

Legend:
[1] = target: T1, peptide consisting of the amino acid sequence shown in SEQ ID NO: 66 (partial CAPRIN-1 sequence) (human); assay: trypsin or chymotrypsin digestion of antibody-bound recombinant CAPRIN-1, protein G pull-down, MS/MS
T1 sequence (peptide): QQPQAASPSVPE

[2] = target: T2, peptide shown in SEQ ID NO: 63 (partial CAPRIN-1 sequence) (human); assay: ELISA, peptide (30 µg/mL solution) coupled to Immobilizer Amino plate, culture supernatant of #14
T2 sequence (peptide): FTSGEKEQVDEW

[3] = target: dog CAPRIN-1 in dog breast cancer tissues (dog); assay: immunohistochemical staining of frozen dog breast cancer tissue sections, 10 µg/mL antibody
[4] = target: T3, human CAPRIN-1 as expressed on human breast cancer cell line MDA-MB-231V and in human cancer tissues (human) (UniProt Q14444); assay: immunohistochemical staining of paraffin-embedded human cancer tissue arrays, 10 µg/mL antibody
T3 sequence (looked up): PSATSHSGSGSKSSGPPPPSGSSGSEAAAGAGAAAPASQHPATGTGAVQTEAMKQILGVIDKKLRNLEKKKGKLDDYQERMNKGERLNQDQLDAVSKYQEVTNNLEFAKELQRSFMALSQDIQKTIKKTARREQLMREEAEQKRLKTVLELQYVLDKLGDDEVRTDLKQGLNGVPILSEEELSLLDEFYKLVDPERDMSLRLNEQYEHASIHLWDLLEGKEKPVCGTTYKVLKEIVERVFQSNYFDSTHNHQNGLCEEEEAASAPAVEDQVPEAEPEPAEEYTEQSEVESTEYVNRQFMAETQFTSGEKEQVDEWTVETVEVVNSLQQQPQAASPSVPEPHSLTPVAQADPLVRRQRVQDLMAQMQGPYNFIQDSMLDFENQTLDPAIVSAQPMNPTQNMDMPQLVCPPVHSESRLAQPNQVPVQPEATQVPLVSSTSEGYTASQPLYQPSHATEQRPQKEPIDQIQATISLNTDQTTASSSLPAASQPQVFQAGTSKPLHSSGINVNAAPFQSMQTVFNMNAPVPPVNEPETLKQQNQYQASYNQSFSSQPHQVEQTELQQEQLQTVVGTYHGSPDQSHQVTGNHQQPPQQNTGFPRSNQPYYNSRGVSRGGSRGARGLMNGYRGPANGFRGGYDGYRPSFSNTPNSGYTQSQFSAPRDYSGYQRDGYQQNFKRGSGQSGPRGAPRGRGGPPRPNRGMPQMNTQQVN

[5] = target: T4, mouse CAPRIN-1 in tumor tissue from transplanted mouse cancer cells (EMT-6, B16F10) (mouse) (UniProt Q60865); assay: immunohistochemical staining of frozen EMT-6 tumor sections from mice, 10 µg/mL antibody
T4 sequence (looked up): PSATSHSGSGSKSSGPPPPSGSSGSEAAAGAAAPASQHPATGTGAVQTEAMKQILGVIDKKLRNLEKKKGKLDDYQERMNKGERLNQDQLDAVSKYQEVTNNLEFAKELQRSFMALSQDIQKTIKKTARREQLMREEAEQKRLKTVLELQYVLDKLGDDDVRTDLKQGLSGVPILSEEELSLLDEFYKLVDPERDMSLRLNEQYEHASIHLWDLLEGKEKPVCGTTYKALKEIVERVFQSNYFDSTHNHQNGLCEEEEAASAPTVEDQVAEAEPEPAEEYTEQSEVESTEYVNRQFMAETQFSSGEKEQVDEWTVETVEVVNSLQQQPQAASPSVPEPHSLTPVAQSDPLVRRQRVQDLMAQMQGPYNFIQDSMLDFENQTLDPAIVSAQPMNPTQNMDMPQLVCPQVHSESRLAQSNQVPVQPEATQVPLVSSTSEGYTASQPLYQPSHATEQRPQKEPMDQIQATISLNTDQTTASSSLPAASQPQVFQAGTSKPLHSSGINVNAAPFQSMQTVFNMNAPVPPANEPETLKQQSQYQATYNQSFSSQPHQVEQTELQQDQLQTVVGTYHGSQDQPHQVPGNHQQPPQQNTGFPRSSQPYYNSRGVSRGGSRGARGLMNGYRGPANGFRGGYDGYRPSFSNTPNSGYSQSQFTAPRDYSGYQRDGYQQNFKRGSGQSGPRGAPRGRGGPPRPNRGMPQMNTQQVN

[6] = target: T3, human CAPRIN-1 as expressed on human breast cancer cell line MDA-MB-231V and in human cancer tissues (human); assay: immunohistochemical staining of paraffin-embedded human breast cancer tissue arrays, 10 µg/mL antibody
[7] = target: T3, human CAPRIN-1 as expressed on human breast cancer cell line MDA-MB-231V and in human cancer tissues (human); assay: flow cytometry on MDA-MB-231V cells expressing CAPRIN-1

Measured: binding

B1: chicken anti-human CAPRIN-1 monoclonal antibody #11 (antibody, V domains shown)
VH: AVTLDESGGGLQMSRGGLSLVCKASGFDFSSYQMNWIRQAPGKGLEFVAAINKFGNSTGHGAAVKGRVTISRDNGQSTVRLQLNNLRAEDTAIYFCTKHAYGYCGSGTWCAAGEIDAWGHGTEVIVSS
VL: QAASTQPSSVSANPGETVEITCSGGGSYSYGWFQQKSPGSAPVTVIYYNNKRPSDIPSRFSGSKSGSTGTLTITGVQADDEAVYYCGSGDSTDTAVFGAGTTLTVLG
notes: Chicken hybridoma antibody; also called chicken monoclonal antibody #11
binds: [1]

B2: mouse anti-human CAPRIN-1 monoclonal antibody #14 (antibody, V domains shown)
VH: GAELVKPGASVKLSCTASGLNIRDIYMHWVKQRPEQGLEWIGKIDPANGNTKYDPKFQGKATITADTSSNTAYVQLSSLTSEDTAVYYCAGTGDYWGQGTTVTVSS
VL: GTCGDIVMSQSPSSLAVSAGEKVTMSCKSSQSLLNSRTRKNYLAWVQHKPGQSPRLLIYWASTRESGVPDRFTGSGSGTDFTLTISSVQAEDLAVYYCRQSYNLVTFGAGPS
not listed: [1]
binds: all other assays above
